Source: article PMC5637259
Where a chain is given by its changes, count along the chain named. In names and notes the source's numbering stands. These are yes or no findings as the source states them, for the method shown. In cells and extracts the contact can be indirect. Some binding calls cover weakened binding; strength is not graded here. Sequences can lack the tags named with a protein.

Key:
Test in all cases: co-IP; 293T cells co-transfected, lysed 48 h later in RIPA buffer (50 mM Tris-HCl pH 7.4, 150 mM NaCl, 1% NP40, 10% glycerol); 1 mg extract with anti-Flag antibody and protein A/G agarose at 4 °C overnight; Western blot
[1] = biological target: T1, Flag-KHSRP-K87R (human) (UniProt Q92945)
T1 sequence: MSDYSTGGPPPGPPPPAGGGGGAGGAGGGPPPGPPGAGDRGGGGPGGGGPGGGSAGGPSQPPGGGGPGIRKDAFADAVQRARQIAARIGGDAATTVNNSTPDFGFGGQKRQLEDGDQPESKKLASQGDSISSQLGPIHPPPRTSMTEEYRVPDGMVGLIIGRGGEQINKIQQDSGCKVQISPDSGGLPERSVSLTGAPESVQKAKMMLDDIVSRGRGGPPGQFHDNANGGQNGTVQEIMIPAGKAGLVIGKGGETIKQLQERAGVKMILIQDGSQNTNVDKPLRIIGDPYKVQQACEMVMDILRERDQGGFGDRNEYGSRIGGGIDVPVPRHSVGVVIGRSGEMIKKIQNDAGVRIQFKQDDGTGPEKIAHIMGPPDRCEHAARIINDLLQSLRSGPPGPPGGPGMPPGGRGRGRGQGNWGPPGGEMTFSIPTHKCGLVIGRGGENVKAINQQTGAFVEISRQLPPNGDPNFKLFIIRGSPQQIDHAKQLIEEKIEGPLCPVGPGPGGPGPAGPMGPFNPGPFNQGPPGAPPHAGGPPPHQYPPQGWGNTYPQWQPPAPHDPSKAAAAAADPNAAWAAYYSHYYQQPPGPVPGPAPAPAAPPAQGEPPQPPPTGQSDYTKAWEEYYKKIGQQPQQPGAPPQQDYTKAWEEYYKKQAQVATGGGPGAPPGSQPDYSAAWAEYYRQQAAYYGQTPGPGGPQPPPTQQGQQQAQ

[2] = biological target: T2, Flag-KHSRP-WT (human) (UniProt Q92945)
T2 sequence: T1 sequence with R87K

[3] = biological target: T3, Flag-DGCR8 (UniProt Q8WYQ5)
T3 sequence: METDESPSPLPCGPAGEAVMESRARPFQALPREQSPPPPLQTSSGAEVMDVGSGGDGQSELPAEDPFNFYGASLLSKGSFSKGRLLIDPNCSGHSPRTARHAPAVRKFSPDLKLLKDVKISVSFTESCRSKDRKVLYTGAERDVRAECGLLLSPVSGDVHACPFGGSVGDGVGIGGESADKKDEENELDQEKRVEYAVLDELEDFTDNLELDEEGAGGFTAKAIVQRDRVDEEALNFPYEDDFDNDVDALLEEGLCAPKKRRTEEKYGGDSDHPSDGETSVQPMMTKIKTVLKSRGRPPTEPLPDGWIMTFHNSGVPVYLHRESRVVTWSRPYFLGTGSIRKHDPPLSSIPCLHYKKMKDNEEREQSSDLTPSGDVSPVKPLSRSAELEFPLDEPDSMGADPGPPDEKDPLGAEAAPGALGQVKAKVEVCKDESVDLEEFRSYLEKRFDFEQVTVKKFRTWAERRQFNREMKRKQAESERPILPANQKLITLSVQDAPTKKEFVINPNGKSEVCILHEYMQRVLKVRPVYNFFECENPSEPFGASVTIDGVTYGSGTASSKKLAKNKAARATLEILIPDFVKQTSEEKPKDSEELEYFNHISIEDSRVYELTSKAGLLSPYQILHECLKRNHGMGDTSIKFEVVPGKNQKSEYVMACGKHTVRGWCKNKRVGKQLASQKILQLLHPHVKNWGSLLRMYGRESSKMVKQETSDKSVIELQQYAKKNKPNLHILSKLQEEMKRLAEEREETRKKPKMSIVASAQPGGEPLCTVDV

B1: HA-Drosha (enzyme, UniProt Q9NRR4 1-1374)
chain: MMQGNTCHRMSFHPGRGCPRGRGGHGARPSAPSFRPQNLRLLHPQQPPVQYQYEPPSAPSTTFSNSPAPNFLPPRPDFVPFPPPMPPSAQGPLPPCPIRPPFPNHQMRHPFPVPPCFPPMPPPMPCPNNPPVPGAPPGQGTFPFMMPPPSMPHPPPPPVMPQQVNYQYPPGYSHHNFPPPSFNSFQNNPSSFLPSANNSSSPHFRHLPPYPLPKAPSERRSPERLKHYDDHRHRDHSHGRGERHRSLDRRERGRSPDRRRQDSRYRSDYDRGRTPSRHRSYERSRERERERHRHRDNRRSPSLERSYKKEYKRSGRSYGLSVVPEPAGCTPELPGEIIKNTDSWAPPLEIVNHRSPSREKKRARWEEEKDRWSDNQSSGKDKNYTSIKEKEPEETMPDKNEEEEEELLKPVWIRCTHSENYYSSDPMDQVGDSTVVGTSRLRDLYDKFEEELGSRQEKAKAARPPWEPPKTKLDEDLESSSESECESDEDSTCSSSSDSEVFDVIAEIKRKKAHPDRLHDELWYNDPGQMNDGPLCKCSAKARRTGIRHSIYPGEEAIKPCRPMTNNAGRLFHYRITVSPPTNFLTDRPTVIEYDDHEYIFEGFSMFAHAPLTNIPLCKVIRFNIDYTIHFIEEMMPENFCVKGLELFSLFLFRDILELYDWNLKGPLFEDSPPCCPRFHFMPRFVRFLPDGGKEVLSMHQILLYLLRCSKALVPEEEIANMLQWEELEWQKYAEECKGMIVTNPGTKPSSVRIDQLDREQFNPDVITFPIIVHFGIRPAQLSYAGDPQYQKLWKSYVKLRHLLANSPKVKQTDKQKLAQREEALQKIRQKNTMRREVTVELSSQGFWKTGIRSDVCQHAMMLPVLTHHIRYHQCLMHLDKLIGYTFQDRCLLQLAMTHPSHHLNFGMNPDHARNSLSNCGIRQPKYGDRKVHHMHMRKKGINTLINIMSRLGQDDPTPSRINHNERLEFLGDAVVEFLTSVHLYYLFPSLEEGGLATYRTAIVQNQHLAMLAKKLELDRFMLYAHGPDLCRESDLRHAMANCFEALIGAVYLEGSLEEAKQLFGRLLFNDPDLREVWLNYPLHPLQLQEPNTDRQLIETSPVLQKLTEFEEAIGVIFTHVRLLARAFTLRTVGFNHLTLGHNQRMEFLGDSIMQLVATEYLFIHFPDHHEGHLTLLRSSLVNNRTQAKVAEELGMQEYAITNDKTKRPVALRTKTLADLLESFIAALYIDKDLEYVHTFMNVCFFPRLKEFILNQDWNDPKSQLQQCCLTLRTEGKEPDIPLYKTLQTVGPSHARTYTVAVYFKGERIGCGKGPSIQQAEMGAAMDALEKYNFPQMAHQKRFIERKYRQELKEMRWEREHQEREPDETEDIKK
With B1 the binding [1] was “binds” and the binding [2] was “binds”.

B2: HA-KHSRP-WT (protein, UniProt Q92945 1-711)
chain: T1 sequence with R87K
In the case of B2, the binding [3] is reported as “binds”.

B3: HA-KHSRP-K87R (protein, UniProt Q92945 1-711)
chain: T1 sequence
With B3 the binding [3] was “binds”.
